Measurements as given in the supplement of paper PMC3334620.
Whole data set: some 33,000 sequences, median “E-score (-0.5 to 0.5)” near -0.015, cut for the highest 2% near 0.3. Some of the results follow.

Each sequence was assayed against T1, Abf1 (UniProt P14164) (assay: PBM E-score (8-mer binding enrichment) (E-score (-0.5 to 0.5)); higher = stronger / more preferred TF binding). Details: protein concentration: 200 nM; construct: GST-full length.
T1 sequence: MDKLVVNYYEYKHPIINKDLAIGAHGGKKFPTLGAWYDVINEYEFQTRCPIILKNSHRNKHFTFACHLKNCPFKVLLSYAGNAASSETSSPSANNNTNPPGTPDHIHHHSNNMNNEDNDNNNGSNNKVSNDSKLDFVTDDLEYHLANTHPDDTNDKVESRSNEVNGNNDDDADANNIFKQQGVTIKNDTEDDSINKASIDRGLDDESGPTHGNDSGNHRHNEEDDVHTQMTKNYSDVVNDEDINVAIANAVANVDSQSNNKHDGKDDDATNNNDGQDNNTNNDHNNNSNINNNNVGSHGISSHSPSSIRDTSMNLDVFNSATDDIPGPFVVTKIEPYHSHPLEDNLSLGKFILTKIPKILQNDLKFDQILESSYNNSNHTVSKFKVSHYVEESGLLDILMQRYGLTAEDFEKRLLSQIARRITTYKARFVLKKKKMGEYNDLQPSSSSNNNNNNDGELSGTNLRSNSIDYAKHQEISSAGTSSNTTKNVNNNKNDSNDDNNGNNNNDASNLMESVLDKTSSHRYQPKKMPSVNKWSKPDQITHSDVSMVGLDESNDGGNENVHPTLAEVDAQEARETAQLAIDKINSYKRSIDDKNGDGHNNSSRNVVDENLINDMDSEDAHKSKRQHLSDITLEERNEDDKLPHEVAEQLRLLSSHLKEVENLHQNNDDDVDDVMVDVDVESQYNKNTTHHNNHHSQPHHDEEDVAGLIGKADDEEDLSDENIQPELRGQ
Outline: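 GST-tagged yeast TFs (full-length or DNA-binding domain) were made by PURExpress in vitro transcription/translation and applied at about 100-200 nM to universal all-10-mer Agilent arrays. The arrays were made double-stranded by primer extension, on fresh or once-stripped slides. Bound protein was detected with fluorescent anti-GST, and scans were normalised with masliner. Each ungapped eight-base word, pooled with its reverse complement, received an E-score (modified Wilcoxon-Mann-Whitney statistic) from the Universal PBM Analysis Suite.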

Sequence | PBM E-score
AATCTGAC | 0.177
AGTGATTA | 0.351
CGACTATC | 0.166
ATAGAAAT | 0.113
ATCCCCAA | -0.0599
CTAAGGAG | -0.109
CCCGTATC | 0.107
TAGTCACA | 0.128
GCCGGAAA | -0.0201
GGTTGCAC | -0.0909
GAGCCTCA | -0.133
AAAGGAAT | -0.00419
AGCTGGCC | -0.114
GATAGGGC | -0.134
GCGATTTA | 0.114
GAATCTAA | 0.0358
CATCCTAC | 0.195
AGCCACTG | -0.158
CCCCCGAA | -0.18
AACACAGA | 0.0142
CTGGTTGC | -0.0319
GAATTAAC | 0.0822
CAGTAGAC | 0.134
GGTGGTTA | -0.252
CACGGCGC | 0.139

A different layout for some results above:
Sequence,PBM E-score
CGACTATC,0.166
ATAGAAAT,0.113
ATCCCCAA,-0.0599

(further entries)

Sequence | PBM E-score
ACGGCTAT | 0.128
CCGTTGTC | 0.174
AAAATTGG | 0.0521
GGGCTCGA | -0.187
CTCTGTTC | -0.132
CTAGAAAA | -0.00272
ATGAGCTC | -0.15
CAATACTC | 0.12
CGATGGGC | -0.143
CACGCGGC | -0.0475
AAGGACAC | 0.0575
ACTGTCGC | 0.128
GGTAAAAA | 0.0336
GCTAAAGA | -0.0209
TATCCAAA | 0.189
TCTGATAA | 0.134
GGTGGAAA | -0.00266
GTGCCTCA | -0.279
GTCCTTTA | -0.102
ACCTCGTC | 0.103
GGCGGGAC | -0.164
CGCGCCAG | -0.204
CACAAAGA | 0.0323
GGCTTCGA | -0.107
GATTCCAC | 0.0172

Sequence | PBM E-score
AGGACCAC | -0.148
ACGTAGAT | 0.15
GTCGCAAC | 0.00745
CTAACATA | -0.0195
AAAGATTC | 0.134
AAGGTGAC | 0.259
GGATAATA | 0.173
CTCTTGTA | -0.0473
CCTCTCTA | -0.39
GGCACGGA | -0.111
GACGCTTA | -0.01
CTCCATAC | 0.151
ACACTAGG | -0.0202
GGGTACAC | -0.0053
AAAACCAC | -0.097
GCGCGTGA | 0.21
CATACAGC | -0.258
CCCAAGCA | -0.226
GAAGCTCC | -0.124
GGGAGCAA | -0.305
GCCACGGC | -0.0347
AGTCGTAA | 0.0165
GCTCCAGC | -0.0487
CGTGGCCC | -0.129
AATCTCGA | -0.00869

Sequence | PBM E-score
CGGATAAG | 0.0322
ACCATATA | 0.247
GGGGTGCA | -0.216
CGACTGCG | -0.0701
ACCCTAGT | -0.106
CGAAACAA | 0.203
ACCAAATG | 0.0408
GTCATGAC | 0.221
GCAATCCA | 0.0495
GAAACTCA | -0.161
AAGAGCGA | -0.179
AATTTGAT | -0.0785
CGTCGCTC | 0.233
ATTTCGAC | -0.0821
GGGCCCAC | -0.16
ACCGCTCA | 0.0985
GCAACAGC | -0.0613
CGGGAGTA | 0.127
ACTCGGAA | -0.0125
CCCCAATC | -0.133
TATCGGCA | -0.127
ACAACCGC | 0.0488
TTCAGCAA | -0.00597
CCCCACAC | -0.1
CCCCTTTC | -0.0997

Sequence | PBM E-score
ACATAGAT | 0.0539
CGCGGCGC | -0.00706
ATCGCTGA | 0.111
CAAGAGAC | 0.0097
GGAGAAAC | -0.113
TCACCGGA | -0.0856
ATGTGATG | 0.0498
ATCAAAGC | -0.0957
TCGGCCGA | 0.0974
TAGCTACA | 0.139
TAGCGAAA | -0.00307
ACAGCTGT | 0.048
CCTCCTCA | -0.302
AACTGAGT | -0.187
AGCCCAGG | -0.313
TCCAGACA | -0.27
GACTTGTA | -9e-05
GTAACTCA | 0.121
GAGACGCC | -0.0858
AATGGTAT | 0.0198
AGACACGC | -0.0699
AAGGAGGG | -0.262
CTACCTCC | -0.108
ACACTGCG | -0.143
CAAACGGA | 0.0341

Sequence | PBM E-score
AAAAAGGC | 0.151
ACTGCCCT | 0.0979
ACCCATAC | -0.00781
AAAGTGCA | 0.0419
TCTTATCA | 0.316
CGATTTAC | 0.136
AATGTTTA | -0.146
ATTACCCA | 0.0876
ACTAGGTC | 0.17
GATCGCCC | 0.0433
ACAAGCTA | -0.121
CGACGGCC | 0.077
ACGAGCCG | 0.231
AGGAATTC | -0.164
AAAACGCT | -0.0791
ACCGTCCA | 0.116
CAACTATA | -0.0129
TGAATTAA | 0.227
AGATTGGG | 0.0561
CCTTCACC | -0.156
ACGGGGTG | -0.0176
AAAATTTC | 0.00567
ACGTCAAT | 0.116
CACCGCGA | -0.115
ATGCAGCA | -0.015

Sequence | PBM E-score
CAACGGTG | 0.0386
AAAAAAAG | 0.0622
AAAACACA | 0.179
CCTCGGCG | 0.0652
AACGGTCG | 0.203
AAGTCGAC | 0.058
AGGAGCCC | -0.145
TGGGCTAA | -0.143
AAATGCTC | -0.0929
CTTCTTAA | 0.0451
AGGGCGCG | -0.299
AGCAATTC | 0.0806
GATGAAAA | 0.00307
CTTCAACA | 0.0302
CCTCAGTC | -0.218
CCACCATC | -0.217
CGCCCGAA | -0.0642
AAACTCAG | -0.091
ATTCCATA | 0.155
AGTCGCAG | -0.0448
TCCTACAA | -0.102
GCCCCGTA | 0.222

4 consecutive entries out of the list so far:
Sequence | PBM E-score
GATGAAAA | 0.00307
CTTCAACA | 0.0302
CCTCAGTC | -0.218
CCACCATC | -0.217
